Primary screen of a compound library

Protein sequences, listed by entry. Tags and fused reporters are not part of them.
UniProt E9BF75, entry or part of it: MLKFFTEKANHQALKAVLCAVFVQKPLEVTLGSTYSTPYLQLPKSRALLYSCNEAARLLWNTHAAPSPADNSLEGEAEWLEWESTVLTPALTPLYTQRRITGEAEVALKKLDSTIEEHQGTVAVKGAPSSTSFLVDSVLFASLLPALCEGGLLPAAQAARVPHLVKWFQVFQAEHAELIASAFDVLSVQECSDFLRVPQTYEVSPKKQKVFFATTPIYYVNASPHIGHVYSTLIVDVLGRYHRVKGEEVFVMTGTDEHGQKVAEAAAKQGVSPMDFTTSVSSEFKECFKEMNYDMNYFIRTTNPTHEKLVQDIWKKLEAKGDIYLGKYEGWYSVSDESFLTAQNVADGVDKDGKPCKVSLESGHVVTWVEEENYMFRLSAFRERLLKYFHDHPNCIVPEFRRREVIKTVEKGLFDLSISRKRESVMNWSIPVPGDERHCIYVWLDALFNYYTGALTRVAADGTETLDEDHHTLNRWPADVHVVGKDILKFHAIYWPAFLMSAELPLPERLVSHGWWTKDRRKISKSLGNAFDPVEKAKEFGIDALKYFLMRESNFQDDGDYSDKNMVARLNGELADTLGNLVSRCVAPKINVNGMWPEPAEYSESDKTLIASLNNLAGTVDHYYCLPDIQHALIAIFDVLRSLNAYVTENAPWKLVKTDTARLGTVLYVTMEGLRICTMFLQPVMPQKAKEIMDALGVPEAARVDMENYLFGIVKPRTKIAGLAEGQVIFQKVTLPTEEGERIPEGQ

From ChEMBL document CHEMBL3988442, “University of Dundee, Small-Polar-MMV Screening Library” (2021).

Results are percentages, as filed. The record does not define 0% and 100%; most values in the screen are far below 50% and negative numbers occur (in some assays of this library far below -100). This is an unselected part of the compounds tested.

A: 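Assay on Mycobacterium tuberculosis, filed only as a heat shock assay from Cornell; the read-out is not stated. The concentration is filed as 10 mM, unlikely as a test dose, so the dose is not known. Direction is inferred from retests: higher values go with stronger inhibition. Size under these conditions: about 69,000 compounds, about 930 of them at 50% or above in at least one test.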
B: 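Methionyl-tRNA synthetase (putative), Leishmania donovani (UniProt E9BF75). Primary screen of methionyl-tRNA synthetase; the read-out is not stated. The test concentration is not given. The values are filed as inhibition. Size under these conditions: about 68,000 compounds, about 24 of them at 50% or above in at least one test.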
C: 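Whole-cell assay for inhibitors of Mycobacterium tuberculosis growth, labelled Cornell in the record; the read-out is not stated. The concentration is filed as 10 mM, unlikely as a test dose, so the dose is not known. Higher means stronger inhibition (inferred from two other growth screens of the library). Of about 53,000 compounds tested this way, about 900 (1.7%) reached 50% or more in at least one test.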

{"smiles": "COc1ncccc1CNC1CCc2c(ccc(=O)n2CC2CC2)C1", "stereo": "stereo not given", "B": 12.32}
{"smiles": "O=C(CN1CCN(c2ccc3nncn3n2)CC1)NC1CCCCC1", "A": 57.46, "B": 6.266, "C": -15.55}
{"smiles": "CC(C)OCCC(=O)NCCC(=O)N1CCN(c2ccccn2)CC1", "A": 9.979, "B": 14.08, "C": 11.95}
{"smiles": "CC(C)c1cc(NC(=O)CN2CCC(N3CCCCC3)CC2)on1", "A": 6.712, "B": 16.38, "C": 44.52}
{"smiles": "Cc1ccc(N2CCC3(CCN(C(=O)c4ccsc4)C3)CC2)nn1.O=C(O)C(F)(F)F", "A": -20.48}
{"smiles": "[H][C@@]12CS(=O)(=O)C[C@]1([H])N(C(=O)CCC(F)(F)F)CCN2Cc1ccncc1", "A": -13.09, "C": -26.99}
{"smiles": "O=C(c1ccc2c(c1)CCC2)N1CCC(c2n[nH]c(C3CC3)n2)CC1", "A": 8.181, "B": 15.76, "C": -4.551}
{"smiles": "CN(C)CCN1C[C@@H]2CN(C(=O)C3CC=CC3)C[C@@H]2C1=O", "B": 10.87}
{"smiles": "Cc1occc1C(=O)N1CCC2(CCCN(Cc3cccs3)C2)C1.O=C(O)C(F)(F)F", "stereo": "stereo not given", "A": -31.87, "C": 19.8}
{"smiles": "Cc1oc(-c2nc(C#N)c(N(C)C)o2)cc1S(=O)(=O)N1CCCCCC1", "A": 1.516, "B": 3.939, "C": -18.66}
{"smiles": "Cc1ccc2c(c1)C(=O)NCC1(CCN(C(=O)c3scnc3C)CC1)O2", "A": -0.2909, "B": 11, "C": -23.4}
{"smiles": "CC(C)NC(=O)C1CN(C(=O)c2ccco2)CC12CCOCC2", "stereo": "stereo not given", "A": 0.5127, "B": 8.155, "C": 10.18}
{"smiles": "CC(=O)N1C[C@H]2CCCC(N3CCN(c4ncccn4)CC3)[C@H]2C1", "stereo": "stereo not given in full", "B": 8.148}
{"smiles": "FC(F)(F)c1ccc(-c2n[nH]c3c2CN(CC2CCOC2)CC3)cc1", "stereo": "stereo not given", "A": -7, "B": 11.39, "C": 6.75}
{"smiles": "O=C(CC1NC(N2CCc3ccccc32)=NC1=O)Nc1ccccc1", "stereo": "stereo not given", "A": 9.054, "B": 19.41, "C": 11.06}
{"smiles": "CN1C(=O)C2(CCN(S(C)(=O)=O)CC2)c2cc(F)ccc21.Cl", "A": 17.45, "C": -1.33}
{"smiles": "CCc1noc(C(C)N2CCN(C)CC2)n1", "stereo": "stereo not given", "A": -25.06, "B": 19.94, "C": 2.805}
{"smiles": "CCc1nc2c(s1)C(N(C)C(C)=O)CCC2", "stereo": "stereo not given", "A": -26.21, "B": 11.02}
{"smiles": "Cc1ccc(C(=O)N2CCC(Oc3c(C)cccc3C)CC2)c(=O)[nH]1", "A": 0.3145, "B": 10.93}
{"smiles": "COc1ccc(C(C(=O)O)N2CCN(C3CCCC3)CC2)cc1OC", "stereo": "stereo not given", "A": -21.07}

Once more, the final 2:

* Cc1ccc(C(=O)N2CCC(Oc3c(C)cccc3C)CC2)c(=O)[nH]1 | A: 0.3145%; B: 10.93%
* COc1ccc(C(C(=O)O)N2CCN(C3CCCC3)CC2)cc1OC (stereo not given) | A: -21.07%